Data as given in PMC8486878.
Results are given in words; binding and its absence hold for the method and conditions named. Binding seen in cells or lysates may run through a third protein. Some entries that bind do so weakly or less than the wild type.

Protein sequences, listed by entry. Tags and fused reporters are not part of them. Lines headed by an entry give the natural chain unless they say otherwise; changes in a name come on top. Residues count along the entry.
UniProt P05161, residues 1-157: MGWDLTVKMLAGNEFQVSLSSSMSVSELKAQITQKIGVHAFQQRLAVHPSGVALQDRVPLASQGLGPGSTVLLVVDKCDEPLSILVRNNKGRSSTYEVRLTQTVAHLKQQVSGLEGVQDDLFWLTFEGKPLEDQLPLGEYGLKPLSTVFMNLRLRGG
UniProt P63165, residues 1-97: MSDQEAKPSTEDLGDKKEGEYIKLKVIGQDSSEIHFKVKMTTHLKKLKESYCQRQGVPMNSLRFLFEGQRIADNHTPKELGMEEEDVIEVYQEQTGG
UniProt Q63HN8: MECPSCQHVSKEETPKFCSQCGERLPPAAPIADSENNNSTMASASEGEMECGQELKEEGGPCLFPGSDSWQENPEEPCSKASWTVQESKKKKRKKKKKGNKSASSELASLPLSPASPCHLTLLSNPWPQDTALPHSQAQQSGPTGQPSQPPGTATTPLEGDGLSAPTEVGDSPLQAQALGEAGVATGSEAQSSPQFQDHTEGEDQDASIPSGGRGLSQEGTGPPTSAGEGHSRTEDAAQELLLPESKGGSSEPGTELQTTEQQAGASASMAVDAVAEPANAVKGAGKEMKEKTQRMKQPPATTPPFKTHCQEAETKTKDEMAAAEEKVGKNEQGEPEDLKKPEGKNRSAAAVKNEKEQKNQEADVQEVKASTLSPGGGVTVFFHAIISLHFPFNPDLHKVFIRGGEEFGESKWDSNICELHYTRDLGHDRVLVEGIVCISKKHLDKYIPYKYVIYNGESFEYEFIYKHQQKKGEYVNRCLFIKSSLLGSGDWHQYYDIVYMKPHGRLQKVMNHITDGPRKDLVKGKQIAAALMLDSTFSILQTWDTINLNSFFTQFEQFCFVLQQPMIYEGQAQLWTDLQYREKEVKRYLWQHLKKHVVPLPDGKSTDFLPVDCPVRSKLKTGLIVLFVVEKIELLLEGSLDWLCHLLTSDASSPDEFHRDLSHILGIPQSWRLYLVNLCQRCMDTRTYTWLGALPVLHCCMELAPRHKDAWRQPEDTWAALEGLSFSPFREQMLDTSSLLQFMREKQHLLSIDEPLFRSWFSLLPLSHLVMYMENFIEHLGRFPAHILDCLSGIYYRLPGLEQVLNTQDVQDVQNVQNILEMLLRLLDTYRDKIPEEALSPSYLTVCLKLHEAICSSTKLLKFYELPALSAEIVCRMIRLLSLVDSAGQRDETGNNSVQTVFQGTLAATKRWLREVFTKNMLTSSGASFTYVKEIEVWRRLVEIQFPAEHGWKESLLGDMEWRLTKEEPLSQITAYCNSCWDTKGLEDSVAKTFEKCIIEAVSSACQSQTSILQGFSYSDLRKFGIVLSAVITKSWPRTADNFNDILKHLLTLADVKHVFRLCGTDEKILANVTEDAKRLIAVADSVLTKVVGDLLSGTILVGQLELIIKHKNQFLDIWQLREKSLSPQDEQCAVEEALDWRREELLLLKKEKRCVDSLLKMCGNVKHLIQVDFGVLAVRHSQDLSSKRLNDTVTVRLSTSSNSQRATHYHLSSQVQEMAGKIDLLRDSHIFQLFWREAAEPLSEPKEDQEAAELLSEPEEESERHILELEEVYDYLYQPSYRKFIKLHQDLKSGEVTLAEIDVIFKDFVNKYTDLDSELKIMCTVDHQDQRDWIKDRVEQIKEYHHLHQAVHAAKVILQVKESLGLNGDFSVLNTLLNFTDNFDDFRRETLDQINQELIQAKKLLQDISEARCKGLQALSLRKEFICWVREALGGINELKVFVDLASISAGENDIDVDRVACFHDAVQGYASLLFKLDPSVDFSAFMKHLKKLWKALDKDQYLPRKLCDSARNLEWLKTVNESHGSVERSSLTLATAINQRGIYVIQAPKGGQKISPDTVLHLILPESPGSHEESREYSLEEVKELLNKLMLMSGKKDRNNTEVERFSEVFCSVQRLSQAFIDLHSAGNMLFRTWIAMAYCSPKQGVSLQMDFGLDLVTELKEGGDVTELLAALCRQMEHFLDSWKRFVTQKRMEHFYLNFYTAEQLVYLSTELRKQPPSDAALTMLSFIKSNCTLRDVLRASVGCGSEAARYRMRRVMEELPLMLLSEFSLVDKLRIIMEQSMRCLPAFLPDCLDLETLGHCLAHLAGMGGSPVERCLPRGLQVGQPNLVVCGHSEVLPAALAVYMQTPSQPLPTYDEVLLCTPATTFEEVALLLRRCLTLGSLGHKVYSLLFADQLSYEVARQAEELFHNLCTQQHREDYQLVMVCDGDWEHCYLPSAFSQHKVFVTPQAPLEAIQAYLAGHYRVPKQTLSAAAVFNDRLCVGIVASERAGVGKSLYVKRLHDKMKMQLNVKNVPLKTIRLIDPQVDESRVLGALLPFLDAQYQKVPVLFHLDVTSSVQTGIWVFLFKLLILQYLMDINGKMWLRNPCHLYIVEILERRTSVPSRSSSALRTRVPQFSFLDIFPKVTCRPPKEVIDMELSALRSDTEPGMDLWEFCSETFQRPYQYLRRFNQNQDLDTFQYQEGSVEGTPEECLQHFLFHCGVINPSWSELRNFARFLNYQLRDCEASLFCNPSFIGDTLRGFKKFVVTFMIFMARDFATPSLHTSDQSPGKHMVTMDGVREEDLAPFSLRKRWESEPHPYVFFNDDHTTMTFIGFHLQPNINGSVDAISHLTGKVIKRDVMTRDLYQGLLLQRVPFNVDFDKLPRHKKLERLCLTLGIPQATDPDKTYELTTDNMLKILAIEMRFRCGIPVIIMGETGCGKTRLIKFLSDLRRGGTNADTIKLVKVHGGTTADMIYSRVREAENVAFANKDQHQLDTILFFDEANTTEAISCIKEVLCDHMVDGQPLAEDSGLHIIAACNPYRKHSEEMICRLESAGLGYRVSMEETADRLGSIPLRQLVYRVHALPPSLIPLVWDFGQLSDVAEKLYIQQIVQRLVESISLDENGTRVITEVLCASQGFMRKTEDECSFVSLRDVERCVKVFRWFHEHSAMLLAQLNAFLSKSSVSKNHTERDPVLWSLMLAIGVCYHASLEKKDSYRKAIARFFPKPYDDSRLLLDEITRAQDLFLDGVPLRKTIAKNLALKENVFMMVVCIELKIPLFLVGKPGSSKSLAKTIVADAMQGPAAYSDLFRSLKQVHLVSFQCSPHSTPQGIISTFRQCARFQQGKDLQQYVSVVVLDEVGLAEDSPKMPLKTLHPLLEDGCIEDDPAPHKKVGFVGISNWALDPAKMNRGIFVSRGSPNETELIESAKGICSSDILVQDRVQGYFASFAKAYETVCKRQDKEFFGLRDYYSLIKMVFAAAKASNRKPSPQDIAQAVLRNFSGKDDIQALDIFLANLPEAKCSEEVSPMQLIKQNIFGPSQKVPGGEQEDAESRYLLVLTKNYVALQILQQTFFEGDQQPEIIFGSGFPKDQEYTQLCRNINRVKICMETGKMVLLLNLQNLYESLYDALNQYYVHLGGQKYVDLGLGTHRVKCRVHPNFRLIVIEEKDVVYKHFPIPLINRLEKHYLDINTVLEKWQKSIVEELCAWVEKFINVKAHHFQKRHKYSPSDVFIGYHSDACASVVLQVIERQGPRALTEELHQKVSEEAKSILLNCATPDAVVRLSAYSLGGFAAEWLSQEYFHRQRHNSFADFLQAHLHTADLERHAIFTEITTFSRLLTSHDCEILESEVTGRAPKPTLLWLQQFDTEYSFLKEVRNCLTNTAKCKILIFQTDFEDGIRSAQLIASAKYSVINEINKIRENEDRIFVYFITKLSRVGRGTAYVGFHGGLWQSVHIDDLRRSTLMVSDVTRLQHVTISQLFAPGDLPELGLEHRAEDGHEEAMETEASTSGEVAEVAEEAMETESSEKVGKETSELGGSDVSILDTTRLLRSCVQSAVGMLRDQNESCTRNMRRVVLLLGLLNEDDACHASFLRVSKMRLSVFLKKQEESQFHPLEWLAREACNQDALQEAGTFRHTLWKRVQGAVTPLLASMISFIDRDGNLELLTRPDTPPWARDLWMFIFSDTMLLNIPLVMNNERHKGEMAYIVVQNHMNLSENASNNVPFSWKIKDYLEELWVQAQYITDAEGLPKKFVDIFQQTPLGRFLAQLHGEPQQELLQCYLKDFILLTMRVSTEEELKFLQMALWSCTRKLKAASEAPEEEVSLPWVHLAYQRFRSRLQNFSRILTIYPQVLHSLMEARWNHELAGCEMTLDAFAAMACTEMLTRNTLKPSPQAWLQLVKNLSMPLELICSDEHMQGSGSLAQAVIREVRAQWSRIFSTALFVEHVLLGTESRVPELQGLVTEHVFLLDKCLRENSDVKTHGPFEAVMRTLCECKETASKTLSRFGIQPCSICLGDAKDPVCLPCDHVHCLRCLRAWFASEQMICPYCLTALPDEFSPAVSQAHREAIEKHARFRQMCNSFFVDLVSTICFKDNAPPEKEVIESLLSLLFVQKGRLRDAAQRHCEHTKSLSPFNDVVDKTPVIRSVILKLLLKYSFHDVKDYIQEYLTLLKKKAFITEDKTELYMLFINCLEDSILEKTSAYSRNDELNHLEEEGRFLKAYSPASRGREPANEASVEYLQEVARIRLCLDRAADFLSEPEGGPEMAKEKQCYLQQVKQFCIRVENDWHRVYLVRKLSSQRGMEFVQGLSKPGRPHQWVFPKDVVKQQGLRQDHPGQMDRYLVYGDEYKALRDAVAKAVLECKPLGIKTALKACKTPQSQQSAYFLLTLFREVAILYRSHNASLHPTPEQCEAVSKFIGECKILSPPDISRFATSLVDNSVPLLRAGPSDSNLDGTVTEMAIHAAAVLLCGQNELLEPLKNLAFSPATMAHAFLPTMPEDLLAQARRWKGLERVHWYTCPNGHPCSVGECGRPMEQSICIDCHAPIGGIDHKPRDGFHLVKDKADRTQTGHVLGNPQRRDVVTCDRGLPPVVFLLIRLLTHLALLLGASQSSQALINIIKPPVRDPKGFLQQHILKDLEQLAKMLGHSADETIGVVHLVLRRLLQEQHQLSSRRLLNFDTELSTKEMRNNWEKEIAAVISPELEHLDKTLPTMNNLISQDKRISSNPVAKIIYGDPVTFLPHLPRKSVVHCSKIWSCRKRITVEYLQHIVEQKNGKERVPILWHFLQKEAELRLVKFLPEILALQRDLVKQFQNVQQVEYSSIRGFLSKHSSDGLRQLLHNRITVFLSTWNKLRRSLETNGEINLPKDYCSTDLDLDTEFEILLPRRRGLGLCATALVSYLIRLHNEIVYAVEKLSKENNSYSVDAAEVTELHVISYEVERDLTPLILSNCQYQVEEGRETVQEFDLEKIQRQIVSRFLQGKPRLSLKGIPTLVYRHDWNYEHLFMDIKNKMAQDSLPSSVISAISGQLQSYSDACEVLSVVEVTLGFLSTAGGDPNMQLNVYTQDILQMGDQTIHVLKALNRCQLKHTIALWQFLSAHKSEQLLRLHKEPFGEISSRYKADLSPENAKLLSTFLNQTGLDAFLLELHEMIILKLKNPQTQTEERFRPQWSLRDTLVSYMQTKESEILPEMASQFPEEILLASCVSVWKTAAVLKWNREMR

Experiments:
GST-tagged ISG15 = GST-tagged ISG15 (UniProt P05161); assay: pull-down; GST-tagged UBL (ISG15, SUMO1 or ubiquitin) on magnetic glutathione beads mixed with a lysate of transfected HEK293T cells, overnight 4 °C, three washes in 50 mM Tris.HCl pH 8.0, 150 mM NaCl, 1% triton-x-100; immunoblot against FLAG and GST; only the target purified
GST-tagged-SUMO1 = GST-tagged-SUMO1 (UniProt P63165); assay: as above

binding (GST-tagged ISG15)	binding (GST-tagged-SUMO1)	Substance
binds	–	3xFLAG-RNF213ΔC (from UniProt Q63HN8 1-3997) (domain or fragment)
–	no binding	full-length 3xFLAG-RNF213 (from UniProt Q63HN8 1-5207)
